Results taken from the supplement of paper PMC10849652.
Some of the results follow.

Sequences of proteins named here, by UniProt entry; tags and fusion partners are left off. A change or cut given only in a name is not applied to a line headed by its entry.
UniProt Q9NRD1: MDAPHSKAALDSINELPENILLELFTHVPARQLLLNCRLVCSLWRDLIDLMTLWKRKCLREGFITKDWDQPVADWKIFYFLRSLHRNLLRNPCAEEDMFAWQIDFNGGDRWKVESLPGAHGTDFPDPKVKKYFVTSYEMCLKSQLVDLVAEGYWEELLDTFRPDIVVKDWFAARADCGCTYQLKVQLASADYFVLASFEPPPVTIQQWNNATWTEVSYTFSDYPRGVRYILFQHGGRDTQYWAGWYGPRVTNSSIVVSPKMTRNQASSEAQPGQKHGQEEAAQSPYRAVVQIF
UniProt Q00688: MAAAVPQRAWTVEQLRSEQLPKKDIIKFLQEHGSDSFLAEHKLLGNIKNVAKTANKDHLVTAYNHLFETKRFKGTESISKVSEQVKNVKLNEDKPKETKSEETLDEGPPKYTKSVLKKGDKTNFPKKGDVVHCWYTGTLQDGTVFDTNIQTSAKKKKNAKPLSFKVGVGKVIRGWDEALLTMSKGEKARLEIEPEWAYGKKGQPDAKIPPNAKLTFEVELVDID
UniProt Q96IG2: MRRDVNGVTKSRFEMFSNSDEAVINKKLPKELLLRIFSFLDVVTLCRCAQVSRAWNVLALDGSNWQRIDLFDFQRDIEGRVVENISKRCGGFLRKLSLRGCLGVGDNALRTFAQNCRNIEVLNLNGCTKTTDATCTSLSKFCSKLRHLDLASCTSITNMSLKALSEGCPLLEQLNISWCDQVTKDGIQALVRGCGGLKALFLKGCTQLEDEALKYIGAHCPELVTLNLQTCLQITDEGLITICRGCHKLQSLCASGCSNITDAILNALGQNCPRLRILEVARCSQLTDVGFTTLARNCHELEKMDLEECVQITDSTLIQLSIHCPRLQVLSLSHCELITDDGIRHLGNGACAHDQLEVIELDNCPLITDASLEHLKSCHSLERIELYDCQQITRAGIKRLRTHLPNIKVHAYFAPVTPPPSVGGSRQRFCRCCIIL
UniProt P12318: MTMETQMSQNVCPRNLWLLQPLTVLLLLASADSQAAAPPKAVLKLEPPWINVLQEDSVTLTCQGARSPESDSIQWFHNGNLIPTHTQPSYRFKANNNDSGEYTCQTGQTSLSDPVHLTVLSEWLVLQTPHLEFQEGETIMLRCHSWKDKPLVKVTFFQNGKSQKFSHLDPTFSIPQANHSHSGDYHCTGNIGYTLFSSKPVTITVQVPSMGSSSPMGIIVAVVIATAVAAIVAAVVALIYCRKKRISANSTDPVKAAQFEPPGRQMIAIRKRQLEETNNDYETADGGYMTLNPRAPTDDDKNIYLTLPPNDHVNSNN
UniProt Q96CD0: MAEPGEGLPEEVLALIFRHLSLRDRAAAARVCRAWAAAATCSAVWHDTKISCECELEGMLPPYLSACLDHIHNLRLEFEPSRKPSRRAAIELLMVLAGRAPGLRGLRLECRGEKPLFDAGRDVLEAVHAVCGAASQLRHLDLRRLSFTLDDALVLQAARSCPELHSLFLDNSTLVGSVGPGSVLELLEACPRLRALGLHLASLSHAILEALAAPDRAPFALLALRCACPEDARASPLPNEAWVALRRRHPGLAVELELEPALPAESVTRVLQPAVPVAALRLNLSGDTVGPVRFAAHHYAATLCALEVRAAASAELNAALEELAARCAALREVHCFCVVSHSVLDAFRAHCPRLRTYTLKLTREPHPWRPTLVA
UniProt Q9NXK8: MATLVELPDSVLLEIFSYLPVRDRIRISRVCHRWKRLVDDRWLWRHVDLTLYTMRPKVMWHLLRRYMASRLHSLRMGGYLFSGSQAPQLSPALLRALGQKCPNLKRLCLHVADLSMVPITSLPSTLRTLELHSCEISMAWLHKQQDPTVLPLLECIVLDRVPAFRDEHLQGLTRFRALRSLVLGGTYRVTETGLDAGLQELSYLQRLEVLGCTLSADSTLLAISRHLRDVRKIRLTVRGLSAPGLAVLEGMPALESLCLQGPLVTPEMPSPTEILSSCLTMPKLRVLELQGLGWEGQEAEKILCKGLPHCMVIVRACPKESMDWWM
UniProt Q5T0N5: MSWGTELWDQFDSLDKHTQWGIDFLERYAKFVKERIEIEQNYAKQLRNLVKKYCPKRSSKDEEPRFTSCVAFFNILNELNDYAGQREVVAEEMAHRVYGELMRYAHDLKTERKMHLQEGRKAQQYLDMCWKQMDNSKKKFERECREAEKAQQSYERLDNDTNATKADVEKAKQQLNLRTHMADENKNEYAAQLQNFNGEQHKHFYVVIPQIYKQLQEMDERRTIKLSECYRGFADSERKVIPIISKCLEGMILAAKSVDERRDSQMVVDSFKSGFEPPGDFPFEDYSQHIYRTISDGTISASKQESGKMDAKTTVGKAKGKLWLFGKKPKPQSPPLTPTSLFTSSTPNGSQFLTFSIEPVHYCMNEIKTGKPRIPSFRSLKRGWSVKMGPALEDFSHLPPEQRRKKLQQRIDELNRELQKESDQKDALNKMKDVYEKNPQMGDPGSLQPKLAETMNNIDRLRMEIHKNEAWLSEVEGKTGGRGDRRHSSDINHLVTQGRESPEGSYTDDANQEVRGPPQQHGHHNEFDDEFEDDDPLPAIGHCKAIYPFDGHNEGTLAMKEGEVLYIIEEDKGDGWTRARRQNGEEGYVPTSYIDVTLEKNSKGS
UniProt Q7L8L6: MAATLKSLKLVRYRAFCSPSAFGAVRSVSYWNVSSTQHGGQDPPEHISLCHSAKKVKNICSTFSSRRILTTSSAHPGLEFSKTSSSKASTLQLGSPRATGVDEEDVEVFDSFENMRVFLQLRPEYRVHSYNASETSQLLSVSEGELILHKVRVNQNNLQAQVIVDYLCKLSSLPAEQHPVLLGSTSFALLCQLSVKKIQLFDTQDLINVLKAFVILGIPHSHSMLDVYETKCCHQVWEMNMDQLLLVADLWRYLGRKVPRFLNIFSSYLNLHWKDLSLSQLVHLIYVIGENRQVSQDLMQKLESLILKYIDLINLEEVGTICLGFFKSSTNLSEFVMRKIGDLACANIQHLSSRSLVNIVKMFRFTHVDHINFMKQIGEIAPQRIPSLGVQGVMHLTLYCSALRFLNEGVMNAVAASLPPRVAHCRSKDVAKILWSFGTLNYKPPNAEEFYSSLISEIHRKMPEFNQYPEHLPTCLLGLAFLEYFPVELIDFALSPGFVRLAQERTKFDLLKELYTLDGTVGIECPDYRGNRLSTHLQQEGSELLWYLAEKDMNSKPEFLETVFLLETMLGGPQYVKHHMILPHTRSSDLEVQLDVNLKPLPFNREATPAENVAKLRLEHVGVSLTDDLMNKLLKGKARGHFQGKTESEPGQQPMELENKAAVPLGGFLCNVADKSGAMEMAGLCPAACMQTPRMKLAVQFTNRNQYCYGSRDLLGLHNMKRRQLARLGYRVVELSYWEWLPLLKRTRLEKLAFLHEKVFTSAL
UniProt O75369, whole entry, looked up: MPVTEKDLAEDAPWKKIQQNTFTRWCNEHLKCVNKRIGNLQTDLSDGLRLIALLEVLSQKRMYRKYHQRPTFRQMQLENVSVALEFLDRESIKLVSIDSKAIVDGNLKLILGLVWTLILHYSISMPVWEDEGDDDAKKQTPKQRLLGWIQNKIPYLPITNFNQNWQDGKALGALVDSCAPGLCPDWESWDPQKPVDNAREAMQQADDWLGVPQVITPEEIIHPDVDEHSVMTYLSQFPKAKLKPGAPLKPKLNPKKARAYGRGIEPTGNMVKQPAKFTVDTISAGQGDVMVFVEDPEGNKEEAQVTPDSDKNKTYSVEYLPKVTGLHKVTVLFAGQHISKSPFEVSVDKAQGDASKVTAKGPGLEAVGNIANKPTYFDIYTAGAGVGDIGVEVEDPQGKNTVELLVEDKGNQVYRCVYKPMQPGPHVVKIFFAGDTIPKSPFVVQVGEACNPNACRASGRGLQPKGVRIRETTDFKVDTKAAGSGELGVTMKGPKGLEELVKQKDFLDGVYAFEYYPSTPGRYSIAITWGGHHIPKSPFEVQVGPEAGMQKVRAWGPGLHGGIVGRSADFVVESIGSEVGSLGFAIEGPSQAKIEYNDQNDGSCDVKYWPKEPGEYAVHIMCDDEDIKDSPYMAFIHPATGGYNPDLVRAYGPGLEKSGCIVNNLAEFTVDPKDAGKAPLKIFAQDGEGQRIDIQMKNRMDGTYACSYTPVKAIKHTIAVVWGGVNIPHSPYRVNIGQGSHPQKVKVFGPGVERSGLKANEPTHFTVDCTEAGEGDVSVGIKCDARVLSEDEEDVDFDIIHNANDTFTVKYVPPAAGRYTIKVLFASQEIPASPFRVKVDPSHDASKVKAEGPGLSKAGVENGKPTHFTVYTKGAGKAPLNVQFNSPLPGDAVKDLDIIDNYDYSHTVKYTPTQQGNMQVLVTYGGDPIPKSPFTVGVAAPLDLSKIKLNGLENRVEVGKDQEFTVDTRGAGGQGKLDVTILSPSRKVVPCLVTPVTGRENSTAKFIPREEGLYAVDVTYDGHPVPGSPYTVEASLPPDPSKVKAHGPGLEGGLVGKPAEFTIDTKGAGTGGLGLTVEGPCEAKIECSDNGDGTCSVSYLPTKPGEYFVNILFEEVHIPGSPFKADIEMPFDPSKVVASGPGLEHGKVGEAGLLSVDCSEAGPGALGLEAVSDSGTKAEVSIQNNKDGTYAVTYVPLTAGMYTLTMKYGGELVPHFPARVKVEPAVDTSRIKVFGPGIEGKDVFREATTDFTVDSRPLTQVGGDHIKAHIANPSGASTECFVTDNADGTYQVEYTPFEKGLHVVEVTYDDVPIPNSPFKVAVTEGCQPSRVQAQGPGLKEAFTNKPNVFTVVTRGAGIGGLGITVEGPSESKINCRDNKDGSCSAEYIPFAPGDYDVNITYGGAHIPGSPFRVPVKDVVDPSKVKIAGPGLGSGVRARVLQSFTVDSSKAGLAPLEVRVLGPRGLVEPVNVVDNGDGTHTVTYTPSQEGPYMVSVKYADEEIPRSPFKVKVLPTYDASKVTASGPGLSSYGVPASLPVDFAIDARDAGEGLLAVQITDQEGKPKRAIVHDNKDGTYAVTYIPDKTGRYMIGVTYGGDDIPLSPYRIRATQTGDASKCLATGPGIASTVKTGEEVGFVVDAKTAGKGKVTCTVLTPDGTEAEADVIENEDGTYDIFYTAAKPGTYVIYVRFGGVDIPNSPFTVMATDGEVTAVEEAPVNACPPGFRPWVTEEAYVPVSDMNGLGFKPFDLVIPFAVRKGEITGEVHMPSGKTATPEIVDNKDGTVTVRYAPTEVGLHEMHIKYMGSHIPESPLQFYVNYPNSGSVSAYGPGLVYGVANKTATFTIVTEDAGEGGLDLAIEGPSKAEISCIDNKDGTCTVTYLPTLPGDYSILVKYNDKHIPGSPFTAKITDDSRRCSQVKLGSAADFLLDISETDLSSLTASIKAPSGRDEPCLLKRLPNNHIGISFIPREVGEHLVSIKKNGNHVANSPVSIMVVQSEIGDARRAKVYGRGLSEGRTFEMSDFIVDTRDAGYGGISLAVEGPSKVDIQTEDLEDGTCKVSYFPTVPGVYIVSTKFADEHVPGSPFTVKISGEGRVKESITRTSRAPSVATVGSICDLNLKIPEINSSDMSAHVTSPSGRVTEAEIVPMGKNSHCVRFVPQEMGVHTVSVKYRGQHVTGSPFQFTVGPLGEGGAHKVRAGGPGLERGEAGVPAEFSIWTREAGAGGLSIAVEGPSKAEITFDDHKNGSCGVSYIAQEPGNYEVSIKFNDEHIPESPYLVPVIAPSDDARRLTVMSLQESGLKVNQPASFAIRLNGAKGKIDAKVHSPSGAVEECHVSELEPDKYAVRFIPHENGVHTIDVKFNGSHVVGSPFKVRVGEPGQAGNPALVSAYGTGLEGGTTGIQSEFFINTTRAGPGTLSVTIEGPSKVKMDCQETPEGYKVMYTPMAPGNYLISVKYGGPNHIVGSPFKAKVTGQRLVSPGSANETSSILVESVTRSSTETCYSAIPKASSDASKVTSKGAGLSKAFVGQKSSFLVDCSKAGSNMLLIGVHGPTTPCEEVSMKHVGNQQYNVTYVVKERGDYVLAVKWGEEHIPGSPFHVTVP
UniProt Q9Y5Y0: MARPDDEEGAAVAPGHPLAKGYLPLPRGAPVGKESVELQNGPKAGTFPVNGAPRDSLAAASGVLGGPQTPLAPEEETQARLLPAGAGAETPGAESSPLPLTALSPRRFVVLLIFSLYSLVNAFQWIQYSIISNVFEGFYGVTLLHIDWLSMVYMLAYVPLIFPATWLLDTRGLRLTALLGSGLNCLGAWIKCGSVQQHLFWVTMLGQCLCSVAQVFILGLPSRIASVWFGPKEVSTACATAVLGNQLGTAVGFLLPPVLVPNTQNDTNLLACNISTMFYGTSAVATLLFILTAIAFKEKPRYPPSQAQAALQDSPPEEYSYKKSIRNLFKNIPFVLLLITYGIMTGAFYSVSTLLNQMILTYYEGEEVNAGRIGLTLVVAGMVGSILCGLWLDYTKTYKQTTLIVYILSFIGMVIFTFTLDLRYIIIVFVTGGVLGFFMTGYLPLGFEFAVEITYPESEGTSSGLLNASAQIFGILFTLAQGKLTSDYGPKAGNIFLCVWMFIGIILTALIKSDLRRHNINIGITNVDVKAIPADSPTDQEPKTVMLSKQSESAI

How the values were obtained:
Assay in all cases: log2 fold change, soluble protein after heating vs DMSO (PISA); higher = thermal stabilisation; K562 lysate, 10 uM; active = over 0.2 and 3.5 SD of the protein, either way, in both replicates (recomputed)
vemurafenib = compound: CCCS(=O)(=O)Nc1ccc(F)c(C(=O)c2c[nH]c3ncc(-c4ccc(Cl)cc4)cc23)c1F [vemurafenib]
How it was run: (§1)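 K562 pellets were dounce-homogenised in PBS pH 7.4 containing 1 mM MgCl2, and the crude extract, at 1 mg/mL protein, was exposed to 10 μM compound for 30 min. Aliquots were heated for 3 min across 48°C-58°C, pooled, brought to 0.5% NP-40 at 4°C and spun at 21,000xg for 90 min, with the supernatant taken as soluble protein. TMTpro 16plex LC-MS/MS with equalised channel sums quantified that protein. Values are log-two fold changes in thermal stability relative to solvent controls, taken from duplicates.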

[1] = compound: CCCS(=O)(=O)Nc1ccc(F)c(C(=O)c2c[nH]c3ncc(Cl)cc23)c1F
How it was run: as §1

barasertib = compound: CCN(CCCOc1ccc2c(Nc3cc(CC(=O)Nc4cccc(F)c4)[nH]n3)ncnc2c1)CCOP(=O)(O)O [barasertib]
How it was run: as §1

[2] = compound: CC[C@@H]1C(=O)N(C)c2cnc(Nc3ccc(C(=O)NC4CCN(C)CC4)cc3OC)nc2N1C1CCCC1
How it was run: as §1

volasertib = compound: CC[C@@H]1C(=O)N(C)c2cnc(Nc3ccc(C(=O)N[C@H]4CC[C@H](N5CCN(CC6CC6)CC5)CC4)cc3OC)nc2N1C(C)C [volasertib]
How it was run: as §1

[3] = compound: CCn1c(C(=O)N(C2CC2)C2CC2)cc2c3c(ncn3C)c(Nc3cc(C)n(C)n3)nc21
How it was run: as §1

[4] = compound: CCn1cc(-c2ccnc3[nH]c(-c4cccc(CN(C)C)c4)cc23)c(-c2ccc(NC(=O)N(C)C)cc2)n1
How it was run: as §1

[5] = compound: CN1CCC(CNc2ccc3ncc(-c4cccc(OC(F)(F)F)c4)n3n2)CC1
How it was run: as §1

saracatinib = compound: CN1CCN(CCOc2cc(OC3CCOCC3)c3c(Nc4c(Cl)ccc5c4OCO5)ncnc3c2)CC1 [saracatinib]
How it was run: as §1

sotrastaurin = compound: CN1CCN(c2nc(C3=C(c4c[nH]c5ccccc45)C(=O)NC3=O)c3ccccc3n2)CC1 [sotrastaurin]
How it was run: as §1

alvocidib = compound: CN1CC[C@H](c2c(O)cc(O)c3c(=O)cc(-c4ccccc4Cl)oc23)[C@H](O)C1 [alvocidib]
How it was run: as §1

Tubastatin A = compound: CN1CCc2c(c3ccccc3n2Cc2ccc(C(=O)NO)cc2)C1 [Tubastatin A]
How it was run: as §1

[6] = compound: CNC(=O)C1=CC=CC=C1NC2=NC(=NC=C2Cl)NC3=C(C=C(C=C3)N4CCOCC4)OC
How it was run: as §1

defactinib = compound: CNC(=O)c1ccc(Nc2ncc(C(F)(F)F)c(NCc3nccnc3N(C)S(C)(=O)=O)n2)cc1 [defactinib]
How it was run: as §1

[7] = compound: CNc1nc(-c2ccc3c(N)n[nH]c3c2)cc(N2C[C@@H](C(=O)NC3CCCCC3)CC[C@H]2C)n1
How it was run: as §1

encorafenib = compound: COC(=O)N[C@@H](C)CNc1nccc(-c2cn(C(C)C)nc2-c2cc(Cl)cc(NS(C)(=O)=O)c2F)n1 [encorafenib]
How it was run: as §1

[8] = compound: COC(=O)[C@H](CCSC)NC(=O)C1=C(C=C(C=C1)NC[C@H](CS)N)C2=CC=CC=C2
How it was run: as §1

alisertib = compound: COc1cc(Nc2ncc3c(n2)-c2ccc(Cl)cc2C(c2c(F)cccc2OC)=NC3)ccc1C(=O)O [alisertib]
How it was run: as §1

[9] = compound: COc1cc2nc(-c3cc(F)ccc3O)nc(N[C@@H]3CNC[C@H]3C(C)(C)O)c2cc1OC
How it was run: as §1

gefitinib = compound: COc1cc2ncnc(Nc3ccc(F)c(Cl)c3)c2cc1OCCCN1CCOCC1 [gefitinib]
How it was run: as §1

Row | Target | log2 fold change (vemurafenib) | log2 fold change [1] | log2 fold change (barasertib) | log2 fold change [2] | log2 fold change (volasertib) | log2 fold change [3] | log2 fold change [4] | log2 fold change [5] | log2 fold change (saracatinib) | log2 fold change (sotrastaurin) | log2 fold change (alvocidib) | log2 fold change (Tubastatin A) | log2 fold change [6] | log2 fold change (defactinib) | log2 fold change [7] | log2 fold change (encorafenib) | log2 fold change [8] | log2 fold change (alisertib) | log2 fold change [9] | log2 fold change (gefitinib)
1 | FBXO6 (UniProt Q9NRD1) | inactive: -0.009 | inactive: 0.057 | inactive: -0.016 | inactive: 0.033 | inactive: 0.013 | inactive: 0.013 | inactive: 0.019 | inactive: 0.033 | inactive: -0.007 | inactive: -0.019 | inactive: -0.009 | inactive: -0.03 | inactive: 0.036 | inactive: 0.065 | inactive: 0.016 | inactive: -0.023 | inactive: 0.067 | inactive: 0.02 | inactive: -0.008 | inactive: 0.004
2 | FKBP3 (UniProt Q00688) | inactive: 0.027 | inactive: 0.005 | inactive: -0.039 | inactive: 0.062 | inactive: 0.028 | inactive: -0.015 | inactive: -0.02 | inactive: 0.02 | inactive: -0.007 | inactive: -0.018 | inactive: 0.017 | inactive: 0.018 | inactive: -0.011 | inactive: -0.021 | inactive: 0.047 | inactive: -0.023 | inactive: -0.066 | inactive: -0.006 | inactive: 0.008 | inactive: -0.053
3 | FBXO30 (UniProt Q8TB52) | inactive: -0.065 | inactive: 0.02 | inactive: 0.015 | inactive: -0.026 | inactive: -0.042 | inactive: 0.009 | inactive: 0.208 | inactive: -0.115 | inactive: -0.015 | inactive: -0.013 | inactive: 0.066 | inactive: -0.106 | inactive: 0.03 | inactive: 0.042 | inactive: -0.091 | inactive: 0.036 | inactive: 0.1 | inactive: -0.014 | inactive: -0.006 | inactive: 0.029
4 | FBXL20 (UniProt Q96IG2) | inactive: -0.03 | inactive: -0.026 | inactive: 0.152 | inactive: 0.037 | inactive: -0.035 | inactive: -0.01 | inactive: 0.116 | inactive: 0.006 | inactive: -0.032 | inactive: -0.011 | inactive: -0.065 | inactive: 0.03 | inactive: -0.013 | inactive: 0.006 | inactive: -0.017 | inactive: 0.042 | inactive: -0.151 | inactive: -0.033 | inactive: 0.067 | inactive: 0.06
5 | FIS1 (UniProt Q9Y3D6) | inactive: -0.023 | inactive: 0.029 | inactive: 0.015 | inactive: 0.063 | inactive: 0.094 | inactive: -0.061 | inactive: 0.022 | inactive: -0.007 | inactive: 0.008 | inactive: -0.049 | inactive: -0.007 | inactive: 0.108 | inactive: 0.058 | inactive: 0.021 | inactive: 0.161 | inactive: 0.08 | inactive: -0.019 | inactive: -0.03 | inactive: -0.009 | inactive: -0.037
6 | FANCD2 isoform 1 (UniProt Q9BXW9) | inactive: 0.067 | inactive: 0.053 | inactive: 0.04 | inactive: 0.14 | inactive: -0.045 | inactive: 0.017 | inactive: -0.135 | inactive: 0.02 | inactive: 0.016 | inactive: -0.029 | inactive: 0 | inactive: -0.082 | inactive: -0.001 | inactive: -0.044 | inactive: 0.147 | inactive: -0.059 | inactive: 0.096 | inactive: 0.001 | inactive: 0.023 | inactive: 0.009
7 | FAM98A (UniProt Q8NCA5) | inactive: 0.063 | inactive: 0.032 | inactive: -0.016 | inactive: 0.045 | inactive: -0.029 | inactive: -0.005 | inactive: 0.088 | inactive: -0.08 | inactive: -0.028 | inactive: 0.017 | inactive: 0.042 | inactive: -0.04 | inactive: 0.028 | inactive: 0.01 | inactive: 0.086 | inactive: -0.004 | inactive: 0.025 | inactive: -0.028 | inactive: -0.014 | inactive: 0.037
8 | FCGR2A (UniProt P12318) | inactive: 0 | inactive: -0.009 | inactive: 0.016 | inactive: -0.006 | inactive: 0.015 | inactive: -0.02 | inactive: -0.052 | inactive: 0.064 | inactive: -0.002 | inactive: 0.021 | inactive: -0.05 | inactive: 0.062 | inactive: -0.029 | inactive: -0.023 | inactive: -0.075 | inactive: -0.055 | inactive: -0.023 | inactive: 0.007 | inactive: 0.065 | inactive: -0.039
9 | FBXL8 (UniProt Q96CD0) | inactive: 0.004 | inactive: 0.025 | inactive: -0.093 | inactive: 0.186 | inactive: -0.029 | inactive: 0.032 | inactive: -0.015 | inactive: -0.005 | inactive: 0.029 | inactive: -0.016 | inactive: 0.038 | inactive: 0.008 | inactive: 0.056 | inactive: -0.062 | inactive: 0.065 | inactive: 0.095 | inactive: -0.04 | inactive: -0.055 | inactive: -0.004 | inactive: -0.029
10 | FBXL12 (UniProt Q9NXK8) | inactive: -0.003 | inactive: -0.01 | inactive: 0.049 | inactive: -0.062 | inactive: -0.041 | inactive: -0.086 | inactive: -0.023 | inactive: 0 | inactive: 0.006 | inactive: 0.056 | inactive: -0.004 | inactive: 0.078 | inactive: -0.014 | inactive: 0.022 | inactive: 0.074 | inactive: 0.057 | inactive: 0.055 | inactive: 0.031 | inactive: 0.061 | inactive: -0.016
11 | FNBP1L (UniProt Q5T0N5) | inactive: 0.003 | inactive: 0.029 | inactive: 0.167 | inactive: -0.085 | inactive: -0.068 | inactive: -0.013 | inactive: -0.024 | inactive: -0.019 | inactive: -0.013 | inactive: 0.048 | inactive: 0.04 | inactive: -0.043 | inactive: 0.023 | inactive: -0.066 | active: 0.357 | inactive: 0.045 | inactive: 0.034 | inactive: 0.005 | inactive: -0.015 | inactive: 0.099
12 | FASTKD5 (UniProt Q7L8L6) | inactive: -0.003 | inactive: 0.008 | inactive: -0.047 | inactive: 0.073 | inactive: -0.065 | inactive: 0.028 | inactive: 0.082 | inactive: -0.245 | inactive: 0.043 | inactive: -0.026 | inactive: 0.024 | inactive: -0.11 | inactive: 0.03 | inactive: 0.011 | inactive: -0.017 | inactive: 0.064 | inactive: 0.135 | inactive: 0.002 | inactive: 0.072 | inactive: -0.018
13 | FLNB isoform 8 (UniProt O75369) | inactive: -0.004 | inactive: 0.004 | inactive: 0.001 | inactive: 0.008 | inactive: 0.01 | inactive: -0.022 | inactive: -0.051 | inactive: 0.052 | inactive: 0.017 | inactive: -0.014 | inactive: -0.013 | inactive: 0.027 | inactive: -0.009 | inactive: 0.006 | inactive: -0.001 | inactive: -0.006 | inactive: -0.026 | inactive: 0.01 | inactive: 0.005 | inactive: -0.011
14 | FANCI (UniProt Q9NVI1) | inactive: 0.018 | inactive: 0.021 | inactive: 0.045 | inactive: -0.028 | inactive: -0.053 | inactive: 0.031 | inactive: 0.021 | inactive: -0.119 | inactive: 0.017 | inactive: 0.02 | inactive: 0.063 | inactive: -0.097 | inactive: 0.014 | inactive: 0.01 | inactive: -0.036 | inactive: 0.002 | inactive: 0.052 | inactive: 0 | inactive: 0.01 | inactive: -0.002
15 | FCHO1 (UniProt O14526) | inactive: 0.023 | inactive: 0.033 | inactive: 0.02 | inactive: 0.023 | inactive: -0.062 | inactive: -0.026 | inactive: -0.053 | inactive: -0.004 | inactive: 0.006 | inactive: -0.015 | inactive: 0.027 | inactive: -0.188 | inactive: 0.038 | inactive: 0.039 | inactive: 0.038 | inactive: 0.009 | inactive: 0.076 | inactive: 0.009 | inactive: -0.021 | inactive: 0.003
16 | FLVCR1 (UniProt Q9Y5Y0) | inactive: -0.019 | inactive: 0.044 | inactive: 0.064 | inactive: -0.027 | inactive: 0.01 | inactive: -0.03 | inactive: 0.007 | inactive: 0.045 | inactive: -0.056 | inactive: 0.014 | inactive: 0.012 | inactive: 0.087 | inactive: -0.094 | inactive: 0 | inactive: -0.02 | inactive: 0.017 | inactive: 0.006 | inactive: -0.008 | inactive: -0.027 | inactive: 0.066

At a glance, some entries already given:
Row | Target | log2 fold change (vemurafenib) | log2 fold change [1] | log2 fold change (barasertib) | log2 fold change [2] | log2 fold change (volasertib) | log2 fold change [3] | log2 fold change [4] | log2 fold change [5] | log2 fold change (saracatinib) | log2 fold change (sotrastaurin) | log2 fold change (alvocidib) | log2 fold change (Tubastatin A) | log2 fold change [6] | log2 fold change (defactinib) | log2 fold change [7] | log2 fold change (encorafenib) | log2 fold change [8] | log2 fold change (alisertib) | log2 fold change [9] | log2 fold change (gefitinib)
13 | FLNB isoform 8 (UniProt O75369) | inactive: -0.004 | inactive: 0.004 | inactive: 0.001 | inactive: 0.008 | inactive: 0.01 | inactive: -0.022 | inactive: -0.051 | inactive: 0.052 | inactive: 0.017 | inactive: -0.014 | inactive: -0.013 | inactive: 0.027 | inactive: -0.009 | inactive: 0.006 | inactive: -0.001 | inactive: -0.006 | inactive: -0.026 | inactive: 0.01 | inactive: 0.005 | inactive: -0.011
14 | FANCI (UniProt Q9NVI1) | inactive: 0.018 | inactive: 0.021 | inactive: 0.045 | inactive: -0.028 | inactive: -0.053 | inactive: 0.031 | inactive: 0.021 | inactive: -0.119 | inactive: 0.017 | inactive: 0.02 | inactive: 0.063 | inactive: -0.097 | inactive: 0.014 | inactive: 0.01 | inactive: -0.036 | inactive: 0.002 | inactive: 0.052 | inactive: 0 | inactive: 0.01 | inactive: -0.002
15 | FCHO1 (UniProt O14526) | inactive: 0.023 | inactive: 0.033 | inactive: 0.02 | inactive: 0.023 | inactive: -0.062 | inactive: -0.026 | inactive: -0.053 | inactive: -0.004 | inactive: 0.006 | inactive: -0.015 | inactive: 0.027 | inactive: -0.188 | inactive: 0.038 | inactive: 0.039 | inactive: 0.038 | inactive: 0.009 | inactive: 0.076 | inactive: 0.009 | inactive: -0.021 | inactive: 0.003
16 | FLVCR1 (UniProt Q9Y5Y0) | inactive: -0.019 | inactive: 0.044 | inactive: 0.064 | inactive: -0.027 | inactive: 0.01 | inactive: -0.03 | inactive: 0.007 | inactive: 0.045 | inactive: -0.056 | inactive: 0.014 | inactive: 0.012 | inactive: 0.087 | inactive: -0.094 | inactive: 0 | inactive: -0.02 | inactive: 0.017 | inactive: 0.006 | inactive: -0.008 | inactive: -0.027 | inactive: 0.066
